According to the supplement of paper PMC6411743:
± gives the standard deviation of the averaged measurements. This is a selection; strong and weak results do not stand in their true shares.

Sequences of proteins named here, by UniProt entry; tags and fusion partners are left off. A change or cut given only in a name is not applied to a line headed by its entry.
UniProt O96019, whole entry: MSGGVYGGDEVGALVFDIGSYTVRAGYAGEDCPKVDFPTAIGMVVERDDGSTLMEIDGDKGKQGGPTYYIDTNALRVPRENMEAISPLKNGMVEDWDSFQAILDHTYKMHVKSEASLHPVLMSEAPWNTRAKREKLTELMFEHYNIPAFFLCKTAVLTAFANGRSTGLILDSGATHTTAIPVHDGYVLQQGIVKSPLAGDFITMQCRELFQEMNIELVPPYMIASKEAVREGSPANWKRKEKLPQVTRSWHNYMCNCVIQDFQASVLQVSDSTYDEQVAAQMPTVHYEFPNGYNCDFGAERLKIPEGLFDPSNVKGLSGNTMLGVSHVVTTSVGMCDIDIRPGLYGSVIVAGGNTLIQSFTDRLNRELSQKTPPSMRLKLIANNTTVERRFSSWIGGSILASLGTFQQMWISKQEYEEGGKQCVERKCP
UniProt P00390: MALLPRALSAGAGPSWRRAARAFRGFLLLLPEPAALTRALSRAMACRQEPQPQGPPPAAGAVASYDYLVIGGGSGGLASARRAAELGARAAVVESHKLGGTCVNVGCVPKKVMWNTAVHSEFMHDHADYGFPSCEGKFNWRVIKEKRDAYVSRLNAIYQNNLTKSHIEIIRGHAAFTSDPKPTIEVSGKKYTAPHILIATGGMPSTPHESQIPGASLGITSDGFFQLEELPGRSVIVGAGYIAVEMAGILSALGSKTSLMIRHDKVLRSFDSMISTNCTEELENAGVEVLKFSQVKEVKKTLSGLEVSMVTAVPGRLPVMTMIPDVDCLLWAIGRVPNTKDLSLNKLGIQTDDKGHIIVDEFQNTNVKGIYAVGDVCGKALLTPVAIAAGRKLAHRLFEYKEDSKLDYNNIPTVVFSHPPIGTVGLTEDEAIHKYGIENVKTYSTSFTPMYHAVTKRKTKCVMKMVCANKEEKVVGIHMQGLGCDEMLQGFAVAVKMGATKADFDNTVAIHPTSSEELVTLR
UniProt P15170, whole entry: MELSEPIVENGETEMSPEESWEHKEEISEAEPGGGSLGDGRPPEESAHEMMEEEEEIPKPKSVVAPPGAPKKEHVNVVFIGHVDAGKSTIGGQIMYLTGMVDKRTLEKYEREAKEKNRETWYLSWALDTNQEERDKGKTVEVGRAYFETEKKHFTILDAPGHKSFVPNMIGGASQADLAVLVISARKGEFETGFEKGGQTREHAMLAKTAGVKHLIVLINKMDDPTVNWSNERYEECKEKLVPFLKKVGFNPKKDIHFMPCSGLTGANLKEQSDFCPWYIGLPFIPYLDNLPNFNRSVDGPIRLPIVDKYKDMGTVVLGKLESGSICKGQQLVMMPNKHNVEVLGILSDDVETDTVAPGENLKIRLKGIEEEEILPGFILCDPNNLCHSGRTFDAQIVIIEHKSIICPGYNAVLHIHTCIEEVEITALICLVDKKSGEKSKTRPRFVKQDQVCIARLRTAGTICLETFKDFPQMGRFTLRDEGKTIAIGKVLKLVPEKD
UniProt P12235: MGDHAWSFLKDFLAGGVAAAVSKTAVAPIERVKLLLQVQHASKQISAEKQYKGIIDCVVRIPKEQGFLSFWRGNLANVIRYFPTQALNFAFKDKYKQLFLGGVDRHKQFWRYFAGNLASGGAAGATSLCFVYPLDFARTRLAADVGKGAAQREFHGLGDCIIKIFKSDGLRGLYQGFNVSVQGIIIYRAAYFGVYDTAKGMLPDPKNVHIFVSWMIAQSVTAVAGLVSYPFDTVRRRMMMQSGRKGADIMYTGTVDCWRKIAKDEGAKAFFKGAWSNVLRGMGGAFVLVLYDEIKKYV
UniProt P07814: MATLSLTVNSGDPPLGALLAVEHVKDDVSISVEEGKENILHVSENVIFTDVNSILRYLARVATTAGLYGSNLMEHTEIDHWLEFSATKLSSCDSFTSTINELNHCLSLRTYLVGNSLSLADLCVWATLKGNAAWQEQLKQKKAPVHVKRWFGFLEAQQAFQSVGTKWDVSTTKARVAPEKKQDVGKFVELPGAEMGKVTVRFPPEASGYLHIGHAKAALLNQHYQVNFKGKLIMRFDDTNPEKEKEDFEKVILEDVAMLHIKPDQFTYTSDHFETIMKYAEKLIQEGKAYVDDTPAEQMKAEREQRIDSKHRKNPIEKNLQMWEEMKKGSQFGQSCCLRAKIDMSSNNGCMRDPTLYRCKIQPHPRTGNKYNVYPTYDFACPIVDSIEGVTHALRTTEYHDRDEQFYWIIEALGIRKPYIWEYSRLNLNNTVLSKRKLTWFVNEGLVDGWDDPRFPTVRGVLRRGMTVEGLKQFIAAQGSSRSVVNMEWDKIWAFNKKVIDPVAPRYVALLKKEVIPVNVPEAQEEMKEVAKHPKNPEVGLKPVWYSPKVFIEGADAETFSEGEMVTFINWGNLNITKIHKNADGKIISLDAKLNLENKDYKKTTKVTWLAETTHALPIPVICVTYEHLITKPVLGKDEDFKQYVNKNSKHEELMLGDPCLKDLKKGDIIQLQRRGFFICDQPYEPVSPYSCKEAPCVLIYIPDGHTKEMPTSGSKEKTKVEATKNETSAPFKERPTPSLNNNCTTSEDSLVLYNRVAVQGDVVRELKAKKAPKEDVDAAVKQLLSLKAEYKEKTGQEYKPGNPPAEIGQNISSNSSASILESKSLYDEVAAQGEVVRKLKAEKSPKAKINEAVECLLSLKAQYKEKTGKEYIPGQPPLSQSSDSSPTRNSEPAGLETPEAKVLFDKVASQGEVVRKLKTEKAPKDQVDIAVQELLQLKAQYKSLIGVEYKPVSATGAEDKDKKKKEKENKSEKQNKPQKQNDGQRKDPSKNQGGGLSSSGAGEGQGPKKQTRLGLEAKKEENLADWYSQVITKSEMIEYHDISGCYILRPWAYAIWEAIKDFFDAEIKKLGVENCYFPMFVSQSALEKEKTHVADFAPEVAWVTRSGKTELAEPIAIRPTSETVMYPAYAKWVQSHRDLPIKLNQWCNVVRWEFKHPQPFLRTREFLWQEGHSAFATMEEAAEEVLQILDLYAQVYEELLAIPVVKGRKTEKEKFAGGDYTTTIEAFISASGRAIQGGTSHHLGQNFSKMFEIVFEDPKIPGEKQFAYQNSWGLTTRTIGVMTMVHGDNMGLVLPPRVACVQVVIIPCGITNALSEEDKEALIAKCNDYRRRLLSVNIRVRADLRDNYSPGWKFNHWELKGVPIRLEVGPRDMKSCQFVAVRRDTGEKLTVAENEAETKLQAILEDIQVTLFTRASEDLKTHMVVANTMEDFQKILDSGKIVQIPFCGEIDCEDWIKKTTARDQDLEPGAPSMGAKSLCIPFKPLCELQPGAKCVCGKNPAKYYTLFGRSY
UniProt P05161, whole entry: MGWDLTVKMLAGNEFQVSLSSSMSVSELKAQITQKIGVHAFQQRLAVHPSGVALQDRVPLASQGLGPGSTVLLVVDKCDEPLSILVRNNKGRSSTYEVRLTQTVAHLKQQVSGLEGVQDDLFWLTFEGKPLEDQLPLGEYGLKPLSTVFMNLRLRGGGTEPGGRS
UniProt P08621, whole entry: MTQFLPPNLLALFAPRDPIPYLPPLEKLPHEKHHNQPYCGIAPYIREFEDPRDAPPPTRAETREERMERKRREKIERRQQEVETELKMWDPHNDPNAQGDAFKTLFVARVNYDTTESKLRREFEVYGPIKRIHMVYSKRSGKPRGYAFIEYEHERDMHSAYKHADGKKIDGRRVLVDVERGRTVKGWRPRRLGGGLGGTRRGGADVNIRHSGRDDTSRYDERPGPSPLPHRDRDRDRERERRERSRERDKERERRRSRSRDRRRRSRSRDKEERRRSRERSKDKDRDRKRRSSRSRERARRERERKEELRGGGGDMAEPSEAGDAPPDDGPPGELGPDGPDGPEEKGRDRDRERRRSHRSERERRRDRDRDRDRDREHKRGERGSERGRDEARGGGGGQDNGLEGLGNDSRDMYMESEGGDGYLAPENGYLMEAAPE
UniProt P16455, whole entry: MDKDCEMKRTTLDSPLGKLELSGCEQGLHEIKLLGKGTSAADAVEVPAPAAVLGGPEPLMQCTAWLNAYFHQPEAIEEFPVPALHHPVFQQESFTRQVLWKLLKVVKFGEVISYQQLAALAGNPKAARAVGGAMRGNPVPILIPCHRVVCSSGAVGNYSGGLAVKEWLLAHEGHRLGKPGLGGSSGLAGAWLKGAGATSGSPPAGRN
UniProt O95825: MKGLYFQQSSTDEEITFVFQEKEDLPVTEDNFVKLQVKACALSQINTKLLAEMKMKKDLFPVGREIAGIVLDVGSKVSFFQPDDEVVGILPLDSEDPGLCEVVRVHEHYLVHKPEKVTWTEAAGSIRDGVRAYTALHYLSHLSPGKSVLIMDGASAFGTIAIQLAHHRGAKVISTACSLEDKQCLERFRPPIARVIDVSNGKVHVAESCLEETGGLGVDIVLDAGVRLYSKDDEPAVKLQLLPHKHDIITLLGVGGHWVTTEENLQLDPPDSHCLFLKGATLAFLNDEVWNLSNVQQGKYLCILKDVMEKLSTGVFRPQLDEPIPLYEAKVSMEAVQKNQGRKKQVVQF
UniProt P02792: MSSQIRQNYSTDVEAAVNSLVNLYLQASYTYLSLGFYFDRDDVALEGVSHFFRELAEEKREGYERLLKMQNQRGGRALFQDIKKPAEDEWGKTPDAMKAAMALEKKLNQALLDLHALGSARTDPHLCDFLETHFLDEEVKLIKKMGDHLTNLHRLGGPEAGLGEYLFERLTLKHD
UniProt P08754, whole entry: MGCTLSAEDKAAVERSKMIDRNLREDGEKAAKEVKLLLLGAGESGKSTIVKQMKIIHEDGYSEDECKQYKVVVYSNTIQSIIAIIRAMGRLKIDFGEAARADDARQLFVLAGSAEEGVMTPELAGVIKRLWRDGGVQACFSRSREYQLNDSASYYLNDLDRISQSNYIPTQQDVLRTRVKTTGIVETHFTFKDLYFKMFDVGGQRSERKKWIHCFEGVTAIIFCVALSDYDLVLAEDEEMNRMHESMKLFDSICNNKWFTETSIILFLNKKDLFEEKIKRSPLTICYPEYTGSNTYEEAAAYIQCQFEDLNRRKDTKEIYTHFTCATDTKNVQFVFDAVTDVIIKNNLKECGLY
UniProt P16150: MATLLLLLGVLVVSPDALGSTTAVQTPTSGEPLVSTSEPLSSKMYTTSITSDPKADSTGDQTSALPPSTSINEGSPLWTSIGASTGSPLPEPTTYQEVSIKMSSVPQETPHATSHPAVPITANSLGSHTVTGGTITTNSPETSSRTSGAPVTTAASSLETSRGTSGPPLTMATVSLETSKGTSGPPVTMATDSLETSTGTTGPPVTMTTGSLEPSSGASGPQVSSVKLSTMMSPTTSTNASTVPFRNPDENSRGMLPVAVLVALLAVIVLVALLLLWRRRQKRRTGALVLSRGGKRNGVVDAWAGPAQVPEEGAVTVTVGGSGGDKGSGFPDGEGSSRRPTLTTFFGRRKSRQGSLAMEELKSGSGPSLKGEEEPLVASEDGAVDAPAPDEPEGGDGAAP
UniProt P04066: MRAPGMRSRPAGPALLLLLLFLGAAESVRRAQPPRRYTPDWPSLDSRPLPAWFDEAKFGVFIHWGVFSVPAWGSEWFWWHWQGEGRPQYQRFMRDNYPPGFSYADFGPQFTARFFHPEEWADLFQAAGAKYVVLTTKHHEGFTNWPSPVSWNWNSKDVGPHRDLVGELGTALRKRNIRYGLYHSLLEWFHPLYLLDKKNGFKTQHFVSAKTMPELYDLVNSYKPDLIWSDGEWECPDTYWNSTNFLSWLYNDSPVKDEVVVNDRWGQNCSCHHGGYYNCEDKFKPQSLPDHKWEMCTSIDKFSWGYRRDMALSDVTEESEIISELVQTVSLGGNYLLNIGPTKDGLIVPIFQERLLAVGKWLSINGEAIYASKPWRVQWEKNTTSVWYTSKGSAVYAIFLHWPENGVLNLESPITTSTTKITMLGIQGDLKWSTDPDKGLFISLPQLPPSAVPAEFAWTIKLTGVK
UniProt P0C2W1: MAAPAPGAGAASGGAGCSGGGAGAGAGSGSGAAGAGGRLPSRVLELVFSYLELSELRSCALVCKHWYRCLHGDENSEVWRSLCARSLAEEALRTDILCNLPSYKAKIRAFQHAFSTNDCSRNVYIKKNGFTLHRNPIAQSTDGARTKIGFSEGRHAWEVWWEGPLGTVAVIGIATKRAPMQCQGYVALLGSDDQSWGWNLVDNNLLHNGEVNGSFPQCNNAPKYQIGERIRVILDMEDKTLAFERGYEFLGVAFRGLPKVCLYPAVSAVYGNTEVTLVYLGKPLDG
UniProt P07437, whole entry: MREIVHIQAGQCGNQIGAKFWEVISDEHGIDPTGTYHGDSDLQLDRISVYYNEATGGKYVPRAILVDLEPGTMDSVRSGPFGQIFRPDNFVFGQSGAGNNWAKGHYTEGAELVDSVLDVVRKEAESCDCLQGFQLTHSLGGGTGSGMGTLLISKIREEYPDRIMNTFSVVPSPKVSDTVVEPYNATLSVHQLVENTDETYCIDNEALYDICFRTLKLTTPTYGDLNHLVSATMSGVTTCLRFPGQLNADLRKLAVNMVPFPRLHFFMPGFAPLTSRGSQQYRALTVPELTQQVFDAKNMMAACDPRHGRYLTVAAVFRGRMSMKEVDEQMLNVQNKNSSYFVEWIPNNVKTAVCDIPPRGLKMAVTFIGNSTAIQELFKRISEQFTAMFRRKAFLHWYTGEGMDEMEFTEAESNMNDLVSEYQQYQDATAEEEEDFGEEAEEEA

Compound: Nc1ncnc2c1ncn2[C@@H]1O[C@H](COP(=O)(O)OP(=O)(O)NP(=O)(O)O)[C@@H](O)[C@H]1O [adenylyl imidodiphosphate]
Assay: NP40-soluble protein abundance relative to vehicle (solubility fold change) (ratio); higher = more soluble protein in presence of AMP-PNP
In short: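 Values are fold changes against the detergent-processed vehicle, based on vsn-normalised intensities. Jurkat crude lysate was treated at eight concentrations from 0.1 to 10 mM (10 min at room temperature, then 3 min at 37 °C), solubilised with 0.8% NP40 and benzonase, ultracentrifuged and analysed by TMT-labelled LC-MS/MS over three independent experiments.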

Target	NP40-soluble protein abundance (concentration: 1mM)	NP40-soluble protein abundance (concentration: 2mM)	NP40-soluble protein abundance (concentration: 4mM)	NP40-soluble protein abundance (concentration: 6mM)	NP40-soluble protein abundance (concentration: 8mM)	NP40-soluble protein abundance (concentration: 10mM)
CYC1 (UniProt P08574)	0.998 ± 0.046	0.983 ± 0.046	0.977 ± 0.027	0.991 ± 0.071	0.971 ± 0.048	0.977 ± 0.029
FTH1 (UniProt P02794)	1.01 ± 0.078	1.03 ± 0.026	0.984 ± 0.03	0.87 ± 0.1	0.887 ± 0.09	0.864 ± 0.093
UniProt O96019 and related entries	1.02 ± 0.069	1.01 ± 0.066	1.02 ± 0.054	1.01 ± 0.089	0.987 ± 0.066	0.974 ± 0.11
UQCRB (UniProt P14927)	0.9813 ± 0.003	1.07 ± 0.082	0.954 ± 0.025	0.969 ± 0.018	0.935 ± 0.0015	0.933 ± 0.023
ATXN1L (UniProt P0C7T5)	1.02 ± 0.016	1.02 ± 0.022	1.03 ± 0.013	1.02 ± 0.03	1 ± 0.016	1.02 ± 0.021
UniProt P00390 and related entries	0.968 ± 0.038	0.89 ± 0.065	0.925 ± 0.04	0.994 ± 0.057	1 ± 0.025	0.97 ± 0.031
UniProt P15170-2|P15170-3|H3BSV8	0.993 ± 0.025	0.955 ± 0.035	0.96 ± 0.01	0.995 ± 0.012	0.964 ± 0.014	0.968 ± 0.043
SLC25A4 (UniProt P12235)	0.965 ± 0.02	0.922 ± 0.086	0.9657 ± 0.0077	0.978 ± 0.046	0.985 ± 0.04	0.996 ± 0.019
UniProt P00374 and related entries	1.02 ± 0.055	1.01 ± 0.041	1.03 ± 0.039	0.951 ± 0.03	0.967 ± 0.056	1.01 ± 0.03
EPRS (UniProt P07814)	0.984 ± 0.079	0.935 ± 0.12	0.933 ± 0.11	0.934 ± 0.14	0.923 ± 0.13	0.913 ± 0.17
UniProt P12814 and related entries	1.01 ± 0.037	1.01 ± 0.015	1 ± 0.024	1.03 ± 0.035	1.01 ± 0.055	1.03 ± 0.012
HSP90AB1 (UniProt P08238)	1.02 ± 0.026	0.964 ± 0.056	0.99 ± 0.017	1.05 ± 0.052	1.04 ± 0.011	1.03 ± 0.035
IMPDH2 (UniProt P12268)	0.962 ± 0.071	0.851 ± 0.086	0.827 ± 0.14	0.831 ± 0.13	0.867 ± 0.11	0.834 ± 0.15
IFNGR1 (UniProt P15260)	1.05 ± 0.023	1.04 ± 0.046	1.02 ± 0.042	1.03 ± 0.038	0.996 ± 0.017	1.01 ± 0.04
ITGA4 (UniProt P13612)	0.982 ± 0.017	1.01 ± 0.063	0.975 ± 0.034	1.01 ± 0.052	1.01 ± 0.039	1.01 ± 0.047
UniProt P04234	1.01 ± 0.052	0.997 ± 0.04	1.02 ± 0.067	0.989 ± 0.053	1.03 ± 0.056	0.992 ± 0.064
UniProt P09651-2|P09651	1.04 ± 0.11	1.09 ± 0.075	1.09 ± 0.11	1.14 ± 0.15	1.18 ± 0.15	1.25 ± 0.18
UniProt O95864 and related entries	1.01 ± 0.036	1.01 ± 0.02	1.02 ± 0.081	1.06 ± 0.08	1.06 ± 0.062	1.04 ± 0.037
UniProt P15813	0.958 ± 0.037	0.947 ± 0.026	0.962 ± 0.035	1.02 ± 0.044	1.02 ± 0.028	1 ± 0.045
UniProt P05161 and related entries	0.991 ± 0.034	0.962 ± 0.028	0.984 ± 0.051	1.04 ± 0.094	1.07 ± 0.062	1.05 ± 0.058
BPGM (UniProt P07738)	1.07 ± 0.13	0.992 ± 0.05	0.972 ± 0.048	0.995 ± 0.05	0.976 ± 0.03	0.955 ± 0.011
PAK4 (UniProt O96013)	1 ± 0.027	1.04 ± 0.027	1.02 ± 0.041	1.02 ± 0.05	0.995 ± 0.031	1.02 ± 0.048
UniProt P08621 and related entries	0.973 ± 0.022	0.976 ± 0.035	1.01 ± 0.023	1.12 ± 0.05	1.18 ± 0.059	1.28 ± 0.09
MGMT (UniProt P16455)	1 ± 0.046	1.06 ± 0.038	0.982 ± 0.044	0.97 ± 0.023	0.9589 ± 0.0089	0.961 ± 0.048
SLC2A1 (UniProt P11166)	1.015 ± 0.005	0.999 ± 0.042	1.02 ± 0.055	0.998 ± 0.029	1.01 ± 0.032	1.01 ± 0.053
UniProt P14151 and related entries	1.05 ± 0.011	1.14 ± 0.16	1.04 ± 0.041	1.06 ± 0.03	1.06 ± 0.032	1.07 ± 0.036

Two records picked at random from the list so far:
Target	NP40-soluble protein abundance (concentration: 1mM)	NP40-soluble protein abundance (concentration: 2mM)	NP40-soluble protein abundance (concentration: 4mM)	NP40-soluble protein abundance (concentration: 6mM)	NP40-soluble protein abundance (concentration: 8mM)	NP40-soluble protein abundance (concentration: 10mM)
UniProt P14151 and related entries	1.05 ± 0.011	1.14 ± 0.16	1.04 ± 0.041	1.06 ± 0.03	1.06 ± 0.032	1.07 ± 0.036
UniProt P15170-2|P15170-3|H3BSV8	0.993 ± 0.025	0.955 ± 0.035	0.96 ± 0.01	0.995 ± 0.012	0.964 ± 0.014	0.968 ± 0.043

Additional results follow.

Target	NP40-soluble protein abundance (concentration: 1mM)	NP40-soluble protein abundance (concentration: 2mM)	NP40-soluble protein abundance (concentration: 4mM)	NP40-soluble protein abundance (concentration: 6mM)	NP40-soluble protein abundance (concentration: 8mM)	NP40-soluble protein abundance (concentration: 10mM)
UniProt O96011 and related entries	0.923 ± 0.051	0.902 ± 0.023	0.919 ± 0.081	1.03 ± 0.1	1.04 ± 0.065	0.991 ± 0.041
UniProt P04053 and related entries	1.02 ± 0.038	0.916 ± 0.089	1.009 ± 0.0077	1 ± 0.043	1.03 ± 0.034	0.993 ± 0.029
SLC25A5 (UniProt P05141)	0.973 ± 0.01	0.959 ± 0.028	0.991 ± 0.015	1.06 ± 0.026	1.12 ± 0.046	1.17 ± 0.046
UniProt P16298 and related entries	1.01 ± 0.036	0.998 ± 0.028	0.993 ± 0.046	0.931 ± 0.03	0.952 ± 0.049	0.953 ± 0.053
COX6C (UniProt P09669)	0.899 ± 0.13	0.908 ± 0.084	0.877 ± 0.066	0.822 ± 0.075	0.838 ± 0.047	0.785 ± 0.09
CRYZL1 (UniProt O95825)	0.968 ± 0.017	0.927 ± 0.054	0.961 ± 0.031	0.951 ± 0.034	0.958 ± 0.049	0.953 ± 0.039
ATP2A2 (UniProt P16615)	0.968 ± 0.015	0.927 ± 0.069	0.973 ± 0.018	0.967 ± 0.032	0.976 ± 0.021	0.953 ± 0.019
FTL (UniProt P02792)	0.963 ± 0.081	1.02 ± 0.073	0.949 ± 0.018	0.844 ± 0.11	0.847 ± 0.09	0.827 ± 0.11
UniProt P16083 and related entries	1.02 ± 0.02	0.982 ± 0.074	0.988 ± 0.034	0.991 ± 0.02	0.993 ± 0.04	0.982 ± 0.052
UniProt P14635 and related entries	1.06 ± 0.029	1.07 ± 0.096	1.06 ± 0.051	1.04 ± 0.018	1.03 ± 0.033	1.03 ± 0.042
ADH5 (UniProt P11766)	0.978 ± 0.043	0.947 ± 0.017	0.957 ± 0.038	1 ± 0.065	1.01 ± 0.027	0.99 ± 0.022
MYL6B (UniProt P14649)	1.02 ± 0.042	1.1 ± 0.053	1.01 ± 0.034	0.987 ± 0.051	0.925 ± 0.041	0.962 ± 0.019
GNAI3 (UniProt P08754)	0.959 ± 0.068	0.877 ± 0.077	0.956 ± 0.024	0.984 ± 0.087	1.03 ± 0.074	0.967 ± 0.083
P0DN79 and related entries (UniProt P35520+P0DN79)	1.01 ± 0.048	0.97 ± 0.044	1.01 ± 0.036	0.9986 ± 0.0076	0.993 ± 0.041	1.01 ± 0.017
UniProt P0C869-6|P0C869-7|P0C869-8	1.01 ± 0.014	1.01 ± 0.057	1.02 ± 0.049	0.987 ± 0.013	0.997 ± 0.056	0.993 ± 0.024
UniProt P06756 and related entries	0.972 ± 0.021	1.02 ± 0.071	0.9964 ± 0.0069	0.987 ± 0.015	0.952 ± 0.015	1.007 ± 0.0064
Fyn (UniProt P06241)	0.993 ± 0.025	0.962 ± 0.013	0.97 ± 0.042	0.991 ± 0.045	1 ± 0.025	0.965 ± 0.029
UniProt P10747 and related entries	0.99 ± 0.011	0.9921 ± 0.0083	0.9829 ± 0.008	1.027 ± 0.0094	1.03 ± 0.021	1.01 ± 0.037
UniProt P11586 and related entries	1 ± 0.019	0.969 ± 0.048	0.9734 ± 0.005	0.985 ± 0.026	0.968 ± 0.014	0.95 ± 0.028
NUDT3 (UniProt O95989)	1.03 ± 0.098	0.983 ± 0.068	0.968 ± 0.12	0.986 ± 0.064	0.994 ± 0.11	0.917 ± 0.033
SPN (UniProt P16150)	0.954 ± 0.063	1.02 ± 0.066	0.985 ± 0.073	0.988 ± 0.068	0.959 ± 0.062	0.944 ± 0.088
FUCA1 (UniProt P04066)	0.956 ± 0.022	0.937 ± 0.022	0.969 ± 0.036	1.01 ± 0.05	1.12 ± 0.094	1 ± 0.074
FBXO45 (UniProt P0C2W1)	0.976 ± 0.035	0.971 ± 0.031	0.967 ± 0.025	1.01 ± 0.024	1 ± 0.041	0.995 ± 0.048
UniProt P07437	1 ± 0.024	0.938 ± 0.027	0.948 ± 0.025	0.886 ± 0.036	0.87 ± 0.026	0.885 ± 0.01
SNRPA1 (UniProt P09661)	1.026 ± 0.0055	1.09 ± 0.055	1.12 ± 0.024	1.19 ± 0.052	1.21 ± 0.04	1.25 ± 0.037
